# Measurements reported in PubChem BioAssay AID1508597 (Cure First, 2020).
# Assay: 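Genes whose silencing sensitises or protects ovarian cancer cells against rucaparib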 (primary screen)
# Cells: human ovarian carcinoma lines grown from tumours: OCI-P5x (papillary serous) and OCI-C5x (clear cell)
# Reagent: siRNA pool against human genes, 1.25 pmol siRNA per well
# Duration: 72 h or 96 h, depending on the cell culture
# Challenge: rucaparib 20 µM (about IC30) or vehicle, present until read-out
# Rucaparib or vehicle: Rucaparib
# Cell line: OCI-P5x (serous)
# Measured: 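ATP luminescence measured at 72 or 96 h according to the culture, then normalised and expressed as percent viability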
# Scale: viability, normalised: higher = more viable cells remaining
# Hit rule: 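a well counts as a hit if its normalised viability is under 80 percent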
# Meaning of the calls: active = viability under 80%; inactive = viability 80% or more
# Shown is an unselected part of the about 2,100 reagents, in one setting of the screen. 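Calls flag viability under 80% in either arm, not effects specific to rucaparib; the reference for percent is not stated.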 Unmarked entries are inactive. Some reagents were tested in more than one well and are listed for each. Not stated in the record: the 100% reference.
gene symbol,technical replicate,"viability, normalised (%)"
AK4 (adenylate kinase 4),1,81
AK4 (adenylate kinase 4),2,69 (active)
AK4 (adenylate kinase 4),3,69.1 (active)
RARA (retinoic acid receptor alpha),1,50.7 (active)
RARA (retinoic acid receptor alpha),2,55.8 (active)
RARA (retinoic acid receptor alpha),3,43.8 (active)
H2BC12 (H2B clustered histone 12),1,71.9 (active)
H2BC12 (H2B clustered histone 12),2,112
H2BC12 (H2B clustered histone 12),3,83
POLQ (DNA polymerase theta),1,61.4 (active)
POLQ (DNA polymerase theta),1,54 (active)
POLQ (DNA polymerase theta),2,44 (active)
POLQ (DNA polymerase theta),2,86.7
POLQ (DNA polymerase theta),3,67.5 (active)
POLQ (DNA polymerase theta),3,47.8 (active)
TRIO (trio Rho guanine nucleotide exchange factor),1,94.7
TRIO (trio Rho guanine nucleotide exchange factor),2,118
TRIO (trio Rho guanine nucleotide exchange factor),3,108
PARP10 (poly(ADP-ribose) polymerase family member 10),1,39.4 (active)
PARP10 (poly(ADP-ribose) polymerase family member 10),2,49.7 (active)
PARP10 (poly(ADP-ribose) polymerase family member 10),3,42 (active)
RCOR2 (REST corepressor 2),1,62 (active)
RCOR2 (REST corepressor 2),2,52.1 (active)
RCOR2 (REST corepressor 2),3,60.9 (active)
MEMO1 (mediator of cell motility 1),1,50.9 (active)
MEMO1 (mediator of cell motility 1),2,53.3 (active)
MEMO1 (mediator of cell motility 1),3,49.4 (active)
MARK2 (microtubule affinity regulating kinase 2),1,98.4
MARK2 (microtubule affinity regulating kinase 2),2,103
MARK2 (microtubule affinity regulating kinase 2),3,87
RFK (riboflavin kinase),1,82.4
RFK (riboflavin kinase),2,64.8 (active)
RFK (riboflavin kinase),3,90.6
GNPAT (glyceronephosphate O-acyltransferase),1,56.4 (active)
GNPAT (glyceronephosphate O-acyltransferase),2,41.9 (active)
GNPAT (glyceronephosphate O-acyltransferase),3,69.4 (active)
HGF (hepatocyte growth factor),1,76.1 (active)
HGF (hepatocyte growth factor),2,58 (active)
HGF (hepatocyte growth factor),3,55.5 (active)
DHX36 (DEAH-box helicase 36),1,53 (active)
DHX36 (DEAH-box helicase 36),2,61.8 (active)
DHX36 (DEAH-box helicase 36),3,66.2 (active)
RNASEL (ribonuclease L),1,91.3
RNASEL (ribonuclease L),2,85.4
RNASEL (ribonuclease L),3,72.9 (active)
"MMS22L (MMS22 like, DNA repair protein)",1,110
"MMS22L (MMS22 like, DNA repair protein)",2,120
"MMS22L (MMS22 like, DNA repair protein)",3,84.6
PKM (pyruvate kinase M1/2),1,103
PKM (pyruvate kinase M1/2),2,99.8
PKM (pyruvate kinase M1/2),3,94.1
PHF19 (PHD finger protein 19),1,29.4 (active)
PHF19 (PHD finger protein 19),2,38.5 (active)
PHF19 (PHD finger protein 19),3,42 (active)
PIF1 (PIF1 5'-to-3' DNA helicase),1,68.8 (active)
PIF1 (PIF1 5'-to-3' DNA helicase),2,52.6 (active)
PIF1 (PIF1 5'-to-3' DNA helicase),3,82

A run of entries of the results above, as a working copy:
gene symbol,technical replicate,"viability, normalised (%)"
PHF19 (PHD finger protein 19),3,42 (active)
PIF1 (PIF1 5'-to-3' DNA helicase),1,68.8 (active)
PIF1 (PIF1 5'-to-3' DNA helicase),2,52.6 (active)
